Experimental data as given in article PMC9943670.

Amino acid sequences for entries named in this document (tags omitted). Chains listed by the source or under a name are the forms on record and can include a tag or linker.
UniProt P20263, whole entry: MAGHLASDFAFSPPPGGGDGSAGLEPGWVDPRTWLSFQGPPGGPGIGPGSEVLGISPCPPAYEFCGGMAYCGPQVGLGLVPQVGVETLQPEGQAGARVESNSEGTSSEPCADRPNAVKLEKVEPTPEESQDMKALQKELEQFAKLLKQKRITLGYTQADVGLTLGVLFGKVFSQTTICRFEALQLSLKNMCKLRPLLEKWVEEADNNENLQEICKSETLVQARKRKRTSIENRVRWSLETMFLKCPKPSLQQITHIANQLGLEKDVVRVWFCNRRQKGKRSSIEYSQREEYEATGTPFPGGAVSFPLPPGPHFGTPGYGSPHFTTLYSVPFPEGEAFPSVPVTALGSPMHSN
UniProt P20263, other isoform, or with tags, fused parts or gaps: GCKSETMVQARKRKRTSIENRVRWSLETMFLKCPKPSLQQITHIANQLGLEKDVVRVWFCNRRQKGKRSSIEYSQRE

Legend:
3xFlag-Oct4 full length = 3xFlag-Oct4 full length (UniProt P20263); experiment: EMSA; conditions: HEK293T whole-cell extract, dimer, EMSA buffer composition not given, 1 h at RT, gels in 1x TG, 200 V, 4 C, probes annealed in 20 mM Tris-HCl pH 8.0, 50 mM MgCl2, 50 mM KCl, protein in a lysate after overexpression, protein details: 3xFlag
Brn2 POU (mouse) [1] = biological target: T1, Brn2 POU (mouse) (UniProt P31360); experiment: EMSA; conditions: 50 nM DNA, 10-500 nM protein, mainly monomer, dimer strongly reduced, negative cooperativity, EMSA buffer composition not given, 1 h at RT, gels in 1x TG, 200 V, 4 C, probes annealed in 20 mM Tris-HCl pH 8.0, 50 mM MgCl2, 50 mM KCl, recombinant protein, protein details: tag cleaved by TEV (leaves G)
T1 sequence: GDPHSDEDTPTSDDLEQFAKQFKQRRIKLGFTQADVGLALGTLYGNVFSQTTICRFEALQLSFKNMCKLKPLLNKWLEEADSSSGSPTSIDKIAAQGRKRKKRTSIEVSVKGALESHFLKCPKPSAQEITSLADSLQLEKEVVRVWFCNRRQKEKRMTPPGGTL

GFP-Oct4 full length = GFP-Oct4 full length (UniProt P20263); experiment: EMSA; conditions: 50 nM DNA, 25-800 nM protein, dimer, methylation state not stated; EMSA buffer composition not given; 1 h at RT; gels in 1x TG, 200 V, 4 C; probes annealed in 20 mM Tris-HCl pH 8.0, 50 mM MgCl2, 50 mM KCl; recombinant protein; protein details: GFP, Ni-affinity purified; label: 5' Cy5 on forward strand
Oct4 POUHD (mouse) = Oct4 POUHD (mouse) (UniProt P20263); experiment: EMSA; conditions: EMSA buffer composition not given, 1 h at RT, gels in 1x TG, 200 V, 4 C, probes annealed in 20 mM Tris-HCl pH 8.0, 50 mM MgCl2, 50 mM KCl, recombinant protein, protein details: tag cleaved by TEV (leaves G)
Brn2 POU (mouse) [2] = biological target: T1, Brn2 POU (mouse); experiment: EMSA (single-tube dual color); conditions: FAM-CpGpal with Cy5-MORE, strong preference for MORE; 5mC at the central CpG (ATG5mCGCAT), both strands; EMSA buffer composition not given; 1 h at RT; gels in 1x TG, 200 V, 4 C; probes annealed in 20 mM Tris-HCl pH 8.0, 50 mM MgCl2, 50 mM KCl; recombinant protein; protein details: tag cleaved by TEV (leaves G); label: 5' Cy5 or FAM on forward strand
[3] = label: 5' Cy5 on forward strand
[4] = AT mutation affects overall binding and dimer formation, label: 5' FAM on forward strand
[5] = 5mC at the central CpG (ATG5mCGCAT), both strands, label: 5' Cy5 or FAM on forward strand

GCCGCCTTATGCGCATAAGCCGCCGC (double strand) [CpGpal unmethylated]
binding result (3xFlag-Oct4 full length; [3]): binds | binding result (Brn2 POU (mouse) [1]; [3]): binds | binding result (GFP-Oct4 full length): binds

GAATCATATGCGCATAAGAATG (double strand) [CpGpal genomic (Zfp957)]
binding result (Oct4 POUHD (mouse); genomic element, methylation state not stated, label: 5' Cy5 or FAM on forward strand): binds

GCCGCCTTGTGCGCATAAGCCGCCGC (double strand) [CpGpal Mutant 1]
binding result (Oct4 POUHD (mouse); [4]): binds more weakly

GCCGCCTTATGCGCATAAGCCGCCGC (double strand) [CpGpal fully methylated]
binding result (3xFlag-Oct4 full length; [5]): binds | binding result (Brn2 POU (mouse) [1]; [5]): binds | binding result (Brn2 POU (mouse) [2]): binds more weakly

GCCGCCTTATGCGCGTAAGCCGCCGC (double strand) [CpGpal Mutant 2]
binding result (Oct4 POUHD (mouse); [4]): binds more weakly

The exact form of at least one protein or probe is not confirmed. For part of these data: A weaker result is weaker than the reference pair of the same experiment. For part of these data: At least one verdict was read from the data and is not stated in words by the source. For part of these data: Tags and fusion partners may be left off the protein sequences shown. For part of these data: At least one result comes from cells or an extract, where the contact may be indirect.
